Consider one molecule from publication PMC12000511, “Molecular basis for the assembly of the Vps5-Vps17 SNX-BAR proteins with Retromer” (Nature Communications, 2025).

These are yes or no findings as the source states them, for the method shown. Binding calls can cover weak binding; strength is not graded here.

For this test, the target named is mouse VPS29 (mVPS29), long isoform (mouse). Kind of test: crystal structure; co-crystallisation of mVps29 with sixfold molar excess of ctVps5(71–80) peptide; hanging drop, 20 °C; 1.7 Å; both purified.

For the molecule DDPLGPLGA [ctVps5_(71–80) peptide], the binding result is “binds”.
